± gives the standard deviation of the averaged measurements. The list shows a part of the results.

Protein sequences, listed by entry. Tags and fused reporters are not part of them. Lines headed by an entry give the natural chain unless they say otherwise; changes in a name come on top.
UniProt Q969R5, whole entry: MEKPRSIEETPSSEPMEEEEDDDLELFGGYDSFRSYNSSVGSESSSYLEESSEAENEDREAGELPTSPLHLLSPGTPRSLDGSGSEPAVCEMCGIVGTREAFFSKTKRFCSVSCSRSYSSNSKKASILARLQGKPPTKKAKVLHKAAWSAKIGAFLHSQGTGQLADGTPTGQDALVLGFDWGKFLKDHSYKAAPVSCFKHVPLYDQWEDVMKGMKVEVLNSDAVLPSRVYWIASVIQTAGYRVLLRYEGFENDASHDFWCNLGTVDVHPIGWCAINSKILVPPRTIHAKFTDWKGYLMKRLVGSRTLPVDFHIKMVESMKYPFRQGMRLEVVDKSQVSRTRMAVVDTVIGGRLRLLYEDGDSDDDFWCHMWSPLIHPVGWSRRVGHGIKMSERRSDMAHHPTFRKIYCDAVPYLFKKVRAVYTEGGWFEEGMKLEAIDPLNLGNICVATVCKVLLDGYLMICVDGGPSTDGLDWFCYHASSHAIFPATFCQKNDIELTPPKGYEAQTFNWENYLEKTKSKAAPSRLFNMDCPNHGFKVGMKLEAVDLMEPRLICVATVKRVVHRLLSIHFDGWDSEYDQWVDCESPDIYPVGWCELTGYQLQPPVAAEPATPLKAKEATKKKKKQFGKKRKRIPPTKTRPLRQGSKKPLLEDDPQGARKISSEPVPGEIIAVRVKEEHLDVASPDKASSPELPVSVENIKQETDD
UniProt Q96HW7, whole entry: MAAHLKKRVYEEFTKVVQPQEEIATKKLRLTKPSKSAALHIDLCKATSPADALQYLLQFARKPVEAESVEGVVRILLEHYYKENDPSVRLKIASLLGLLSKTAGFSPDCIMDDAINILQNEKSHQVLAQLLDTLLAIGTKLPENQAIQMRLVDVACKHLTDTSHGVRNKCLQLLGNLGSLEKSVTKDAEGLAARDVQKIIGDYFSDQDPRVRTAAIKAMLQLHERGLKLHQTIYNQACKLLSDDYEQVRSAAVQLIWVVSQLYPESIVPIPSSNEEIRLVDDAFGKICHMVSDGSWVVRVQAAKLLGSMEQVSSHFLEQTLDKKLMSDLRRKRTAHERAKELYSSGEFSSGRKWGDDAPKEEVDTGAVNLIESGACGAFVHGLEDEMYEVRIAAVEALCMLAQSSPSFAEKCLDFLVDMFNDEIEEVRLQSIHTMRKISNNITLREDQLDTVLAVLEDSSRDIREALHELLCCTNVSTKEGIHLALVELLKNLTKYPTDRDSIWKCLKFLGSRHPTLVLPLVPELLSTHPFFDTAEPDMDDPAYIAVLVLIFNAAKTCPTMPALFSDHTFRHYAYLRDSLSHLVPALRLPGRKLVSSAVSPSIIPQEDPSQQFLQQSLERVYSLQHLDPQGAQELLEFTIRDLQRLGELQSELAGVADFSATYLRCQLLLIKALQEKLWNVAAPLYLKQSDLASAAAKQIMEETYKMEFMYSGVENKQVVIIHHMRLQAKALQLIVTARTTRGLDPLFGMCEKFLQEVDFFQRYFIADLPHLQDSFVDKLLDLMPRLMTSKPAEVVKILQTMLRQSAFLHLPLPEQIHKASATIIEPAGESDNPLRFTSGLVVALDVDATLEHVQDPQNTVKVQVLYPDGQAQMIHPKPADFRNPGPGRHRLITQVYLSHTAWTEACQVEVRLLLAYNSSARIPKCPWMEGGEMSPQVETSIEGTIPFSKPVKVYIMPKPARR
UniProt Q96CN9: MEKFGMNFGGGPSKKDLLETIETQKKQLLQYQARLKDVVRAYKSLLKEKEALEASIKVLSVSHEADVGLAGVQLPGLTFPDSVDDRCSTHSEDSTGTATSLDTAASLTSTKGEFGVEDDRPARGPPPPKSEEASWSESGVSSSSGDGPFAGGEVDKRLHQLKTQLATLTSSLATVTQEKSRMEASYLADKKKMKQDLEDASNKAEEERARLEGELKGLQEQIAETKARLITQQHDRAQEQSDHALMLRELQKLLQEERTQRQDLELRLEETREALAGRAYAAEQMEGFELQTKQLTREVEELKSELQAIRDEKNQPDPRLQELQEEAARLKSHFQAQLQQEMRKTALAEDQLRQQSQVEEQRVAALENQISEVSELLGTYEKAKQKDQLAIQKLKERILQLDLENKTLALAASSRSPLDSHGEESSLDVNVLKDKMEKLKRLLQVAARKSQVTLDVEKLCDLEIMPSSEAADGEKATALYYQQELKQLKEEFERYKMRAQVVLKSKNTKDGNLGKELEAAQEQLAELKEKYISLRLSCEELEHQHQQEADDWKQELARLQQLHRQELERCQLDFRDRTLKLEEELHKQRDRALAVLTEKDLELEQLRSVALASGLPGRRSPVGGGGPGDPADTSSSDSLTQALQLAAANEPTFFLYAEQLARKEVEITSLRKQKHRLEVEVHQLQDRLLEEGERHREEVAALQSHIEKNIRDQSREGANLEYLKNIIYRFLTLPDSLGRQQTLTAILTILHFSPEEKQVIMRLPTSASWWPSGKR
UniProt Q96JC1: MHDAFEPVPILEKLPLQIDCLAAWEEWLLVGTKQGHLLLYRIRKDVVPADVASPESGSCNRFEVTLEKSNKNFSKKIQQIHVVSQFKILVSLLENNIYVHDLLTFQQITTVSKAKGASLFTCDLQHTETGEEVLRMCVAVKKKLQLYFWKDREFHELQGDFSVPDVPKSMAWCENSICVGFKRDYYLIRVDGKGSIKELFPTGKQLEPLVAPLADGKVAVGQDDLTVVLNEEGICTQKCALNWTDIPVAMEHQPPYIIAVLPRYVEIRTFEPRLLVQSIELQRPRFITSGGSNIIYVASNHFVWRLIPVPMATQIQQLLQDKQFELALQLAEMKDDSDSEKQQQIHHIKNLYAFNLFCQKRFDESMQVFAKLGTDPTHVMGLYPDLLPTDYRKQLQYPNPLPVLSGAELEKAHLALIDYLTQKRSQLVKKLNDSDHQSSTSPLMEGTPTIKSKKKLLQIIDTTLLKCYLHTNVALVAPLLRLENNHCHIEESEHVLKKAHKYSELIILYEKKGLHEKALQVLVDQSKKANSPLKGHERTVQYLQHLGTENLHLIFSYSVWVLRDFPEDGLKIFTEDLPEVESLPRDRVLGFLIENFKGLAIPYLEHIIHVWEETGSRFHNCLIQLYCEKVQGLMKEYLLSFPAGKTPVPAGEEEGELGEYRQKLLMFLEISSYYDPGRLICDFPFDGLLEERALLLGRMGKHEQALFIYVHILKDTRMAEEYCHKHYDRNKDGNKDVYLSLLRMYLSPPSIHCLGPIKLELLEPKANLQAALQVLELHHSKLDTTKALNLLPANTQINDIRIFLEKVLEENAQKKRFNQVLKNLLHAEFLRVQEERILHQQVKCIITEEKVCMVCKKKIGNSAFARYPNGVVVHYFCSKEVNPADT
UniProt Q96EK9: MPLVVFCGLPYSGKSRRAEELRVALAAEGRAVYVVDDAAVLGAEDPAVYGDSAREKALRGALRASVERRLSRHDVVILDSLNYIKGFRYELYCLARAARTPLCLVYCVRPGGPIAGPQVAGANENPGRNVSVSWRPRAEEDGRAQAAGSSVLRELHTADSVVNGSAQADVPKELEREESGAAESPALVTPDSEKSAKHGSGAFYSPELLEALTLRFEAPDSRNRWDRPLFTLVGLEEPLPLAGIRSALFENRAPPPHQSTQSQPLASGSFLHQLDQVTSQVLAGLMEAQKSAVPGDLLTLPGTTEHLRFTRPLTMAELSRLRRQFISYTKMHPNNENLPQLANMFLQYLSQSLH
UniProt Q96I59: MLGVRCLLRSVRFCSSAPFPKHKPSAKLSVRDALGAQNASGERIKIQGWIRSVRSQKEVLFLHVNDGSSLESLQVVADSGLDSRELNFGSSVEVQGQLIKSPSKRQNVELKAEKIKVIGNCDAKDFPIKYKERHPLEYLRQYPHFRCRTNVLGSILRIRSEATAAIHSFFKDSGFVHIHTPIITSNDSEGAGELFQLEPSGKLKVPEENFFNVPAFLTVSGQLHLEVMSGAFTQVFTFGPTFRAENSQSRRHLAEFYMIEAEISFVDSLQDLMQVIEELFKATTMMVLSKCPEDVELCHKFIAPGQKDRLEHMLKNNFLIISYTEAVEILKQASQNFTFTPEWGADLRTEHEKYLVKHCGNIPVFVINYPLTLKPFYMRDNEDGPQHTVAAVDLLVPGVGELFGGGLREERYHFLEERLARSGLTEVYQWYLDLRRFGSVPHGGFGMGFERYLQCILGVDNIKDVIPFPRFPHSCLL
UniProt Q92973: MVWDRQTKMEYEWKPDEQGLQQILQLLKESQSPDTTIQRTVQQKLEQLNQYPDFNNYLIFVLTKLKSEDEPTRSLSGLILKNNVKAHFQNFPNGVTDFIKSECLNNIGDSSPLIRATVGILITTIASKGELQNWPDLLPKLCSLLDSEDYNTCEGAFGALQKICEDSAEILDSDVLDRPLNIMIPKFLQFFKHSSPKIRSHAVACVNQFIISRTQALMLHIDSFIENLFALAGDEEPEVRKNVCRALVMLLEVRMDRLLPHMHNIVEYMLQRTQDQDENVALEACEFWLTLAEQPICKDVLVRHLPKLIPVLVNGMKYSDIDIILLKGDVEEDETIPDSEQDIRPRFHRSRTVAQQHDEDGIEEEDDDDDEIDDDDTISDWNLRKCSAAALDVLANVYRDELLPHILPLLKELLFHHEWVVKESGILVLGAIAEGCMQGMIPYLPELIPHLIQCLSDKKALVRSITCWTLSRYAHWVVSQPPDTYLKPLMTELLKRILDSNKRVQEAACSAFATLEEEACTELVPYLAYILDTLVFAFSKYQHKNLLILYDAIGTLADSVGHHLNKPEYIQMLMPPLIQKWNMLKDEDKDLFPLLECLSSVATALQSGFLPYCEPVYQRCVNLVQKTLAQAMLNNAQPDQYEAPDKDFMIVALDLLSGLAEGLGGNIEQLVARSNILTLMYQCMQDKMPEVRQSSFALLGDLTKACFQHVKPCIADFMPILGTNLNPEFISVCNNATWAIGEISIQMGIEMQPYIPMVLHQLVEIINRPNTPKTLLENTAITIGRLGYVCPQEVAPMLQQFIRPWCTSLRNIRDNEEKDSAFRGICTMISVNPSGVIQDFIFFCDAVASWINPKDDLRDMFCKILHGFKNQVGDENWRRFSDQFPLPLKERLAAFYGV
UniProt Q96IZ0: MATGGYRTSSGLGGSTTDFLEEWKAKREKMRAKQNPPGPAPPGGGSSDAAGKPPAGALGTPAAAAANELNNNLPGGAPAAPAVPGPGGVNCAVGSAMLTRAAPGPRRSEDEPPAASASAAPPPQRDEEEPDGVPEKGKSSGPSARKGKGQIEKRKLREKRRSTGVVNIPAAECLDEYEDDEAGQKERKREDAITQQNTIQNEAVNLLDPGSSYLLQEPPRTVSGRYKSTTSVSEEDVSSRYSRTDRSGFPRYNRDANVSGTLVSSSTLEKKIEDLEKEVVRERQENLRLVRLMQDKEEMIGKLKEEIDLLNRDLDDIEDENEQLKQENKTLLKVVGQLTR
UniProt Q92696: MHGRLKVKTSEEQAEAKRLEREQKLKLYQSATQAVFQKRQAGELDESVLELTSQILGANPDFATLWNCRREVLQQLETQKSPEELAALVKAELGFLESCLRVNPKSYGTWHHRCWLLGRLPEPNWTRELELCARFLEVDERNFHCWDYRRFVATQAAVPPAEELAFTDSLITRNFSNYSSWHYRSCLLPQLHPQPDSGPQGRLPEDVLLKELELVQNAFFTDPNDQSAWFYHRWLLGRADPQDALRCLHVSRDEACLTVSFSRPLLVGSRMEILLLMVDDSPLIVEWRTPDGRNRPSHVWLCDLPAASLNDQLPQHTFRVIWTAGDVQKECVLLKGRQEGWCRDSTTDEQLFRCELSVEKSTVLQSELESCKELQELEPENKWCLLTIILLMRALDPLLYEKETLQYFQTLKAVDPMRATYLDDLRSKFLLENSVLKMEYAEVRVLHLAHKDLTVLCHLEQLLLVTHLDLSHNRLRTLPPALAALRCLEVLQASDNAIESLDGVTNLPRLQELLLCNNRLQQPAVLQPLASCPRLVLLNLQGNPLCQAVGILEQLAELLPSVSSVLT
UniProt Q92905, whole entry, looked up: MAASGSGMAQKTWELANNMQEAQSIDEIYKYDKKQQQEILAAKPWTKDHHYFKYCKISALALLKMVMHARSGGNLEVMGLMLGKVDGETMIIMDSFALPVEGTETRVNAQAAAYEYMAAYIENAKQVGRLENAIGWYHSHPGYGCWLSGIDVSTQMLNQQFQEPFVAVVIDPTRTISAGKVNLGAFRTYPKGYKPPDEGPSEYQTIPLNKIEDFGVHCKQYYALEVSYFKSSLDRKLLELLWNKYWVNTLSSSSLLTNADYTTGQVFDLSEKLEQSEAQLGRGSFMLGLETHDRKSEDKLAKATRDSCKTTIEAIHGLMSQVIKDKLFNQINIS

Compound in the experiment: Nc1nc2c(ncn2[C@@H]2O[C@H](COP(=O)(O)OP(=O)(O)OP(=O)(O)O)[C@@H](O)[C@H]2O)c(=O)[nH]1 [guanosine triphosphate]
The experiment in a line: NP40-soluble protein abundance relative to vehicle (solubility fold change) (ratio); higher = more soluble protein in presence of GTP. Put shortly: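 In three independent experiments, Jurkat crude lysate made by Dounce homogenisation was treated for 10 min at room temperature and then 3 min at 37 °C with eight concentrations ranging from 0.1 to 10 mM. It was then solubilised with 0.8% NP40 plus benzonase for 60 min at 4 °C and ultracentrifuged. The supernatant was TMT-labelled for LC-MS/MS, and each value is the fold change against the detergent-processed vehicle for the same replicate, using vsn-normalised intensities.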

For the target LRRC59 (UniProt Q96AG4), the NP40-soluble protein abundance came out at 0.887 ± 0.03 (concentration: 0.1mM); 0.904 ± 0.078 (concentration: 0.5mM); 1.03 ± 0.053 (concentration: 1mM); 1.01 ± 0.086 (concentration: 2mM); 1.06 ± 0.065 (concentration: 4mM); 1.09 ± 0.088 (concentration: 6mM). Besides, the NP40-soluble protein abundance runs as follows: (concentration: 8mM) 1.13 ± 0.068; (concentration: 10mM) 1.16 ± 0.061.

As to L3MBTL2 (UniProt Q969R5), the NP40-soluble protein abundance amounted to 0.99 ± 0.17 (concentration: 0.1mM); 1.08 ± 0.031 (concentration: 0.5mM); 0.98 ± 0.21 (concentration: 1mM); 1.06 ± 0.15 (concentration: 2mM); 1.08 ± 0.12 (concentration: 4mM); 1.05 ± 0.12 (concentration: 6mM). Besides, the NP40-soluble protein abundance was determined as 1.04 ± 0.098 (concentration: 8mM) and 1.06 ± 0.2 (concentration: 10mM).

As to UniProt Q96F24 and related entries, the NP40-soluble protein abundance runs as follows: (concentration: 0.1mM) 1 ± 0.026; (concentration: 0.5mM) 0.933 ± 0.033; (concentration: 1mM) 1.04 ± 0.089; (concentration: 2mM) 1.08 ± 0.049; (concentration: 4mM) 1.04 ± 0.076; (concentration: 6mM) 1.02 ± 0.024. Besides, the NP40-soluble protein abundance was determined as 1.11 ± 0.015 (concentration: 8mM) and 1.13 ± 0.078 (concentration: 10mM).

Consider UniProt Q96HW7 and related entries, for which the NP40-soluble protein abundance by setting is: (concentration: 0.1mM) 1.11 ± 0.03; (concentration: 0.5mM) 1.15 ± 0.068; (concentration: 1mM) 1.18 ± 0.089; (concentration: 2mM) 1.27 ± 0.15; (concentration: 4mM) 1.36 ± 0.13; (concentration: 6mM) 1.3 ± 0.15. For the same target, the NP40-soluble protein abundance is, setting by setting: (concentration: 8mM) 1.39 ± 0.18; (concentration: 10mM) 1.3 ± 0.17.

For the target UniProt Q92576 and related entries, the NP40-soluble protein abundance is, setting by setting: (concentration: 0.1mM) 1 ± 0.014; (concentration: 0.5mM) 1.025 ± 0.0078; (concentration: 1mM) 1.06 ± 0.012; (concentration: 2mM) 1.08 ± 0.058; (concentration: 4mM) 1.1 ± 0.046; (concentration: 6mM) 1.12 ± 0.043. Further, the NP40-soluble protein abundance (concentration: 8mM) worked out at 1.18 ± 0.13 and the NP40-soluble protein abundance (concentration: 10mM) was 1.18 ± 0.12.

With GCC1 (UniProt Q96CN9), the NP40-soluble protein abundance reads like this: (concentration: 0.1mM) 1.04 ± 0.083; (concentration: 0.5mM) 0.994 ± 0.11; (concentration: 1mM) 0.994 ± 0.093; (concentration: 2mM) 0.974 ± 0.087; (concentration: 4mM) 0.997 ± 0.074; (concentration: 6mM) 1.03 ± 0.089. Also, the NP40-soluble protein abundance was 0.969 ± 0.083 (concentration: 8mM) and 1.03 ± 0.061 (concentration: 10mM).

On to UniProt Q96JC1 and related entries, for which the NP40-soluble protein abundance by setting is: (concentration: 0.1mM) 1.1 ± 0.05; (concentration: 0.5mM) 1.07 ± 0.11; (concentration: 1mM) 1.17 ± 0.1; (concentration: 2mM) 1.17 ± 0.13; (concentration: 4mM) 1.15 ± 0.13; (concentration: 6mM) 1.17 ± 0.15. For the same target, the NP40-soluble protein abundance was 1.22 ± 0.068 (concentration: 8mM) and 1.09 ± 0.1 (concentration: 10mM).

Regarding KTI12 (UniProt Q96EK9), the NP40-soluble protein abundance is 0.945 ± 0.052 (concentration: 0.1mM); 0.849 ± 0.043 (concentration: 0.5mM); 1.05 ± 0.066 (concentration: 1mM); 1.05 ± 0.057 (concentration: 2mM); 1.04 ± 0.041 (concentration: 4mM); 0.992 ± 0.06 (concentration: 6mM). The NP40-soluble protein abundance is, setting by setting: (concentration: 8mM) 0.947 ± 0.085; (concentration: 10mM) 1.04 ± 0.027.

With NARS2 (UniProt Q96I59), the NP40-soluble protein abundance is 1 ± 0.074 (concentration: 0.1mM); 1.02 ± 0.084 (concentration: 0.5mM); 0.883 ± 0.04 (concentration: 1mM); 0.907 ± 0.092 (concentration: 2mM); 0.856 ± 0.083 (concentration: 4mM); 0.871 ± 0.055 (concentration: 6mM). Further, the NP40-soluble protein abundance (concentration: 8mM) was 0.85 ± 0.024 and the NP40-soluble protein abundance (concentration: 10mM) came out at 0.792 ± 0.098.

For the target UniProt Q92973 and related entries, the NP40-soluble protein abundance was found to be 0.979 ± 0.05 (concentration: 0.1mM); 0.949 ± 0.039 (concentration: 0.5mM); 0.883 ± 0.067 (concentration: 1mM); 0.936 ± 0.053 (concentration: 2mM); 0.914 ± 0.037 (concentration: 4mM); 0.865 ± 0.05 (concentration: 6mM). The NP40-soluble protein abundance worked out at 0.827 ± 0.07 (concentration: 8mM) and 0.8781 ± 0.0075 (concentration: 10mM).

Consider PAWR (UniProt Q96IZ0), for which the NP40-soluble protein abundance reads like this: (concentration: 0.1mM) 0.88 ± 0.064; (concentration: 0.5mM) 0.8149 ± 0.0025; (concentration: 1mM) 0.9512 ± 0.006; (concentration: 2mM) 0.916 ± 0.016; (concentration: 4mM) 0.876 ± 0.017; (concentration: 6mM) 0.868 ± 0.031. For the same target, the NP40-soluble protein abundance (concentration: 8mM) was 0.916 ± 0.036 and the NP40-soluble protein abundance (concentration: 10mM) was found to be 0.949 ± 0.029.

Take RABGGTA (UniProt Q92696): the NP40-soluble protein abundance by setting is: (concentration: 0.1mM) 1.04 ± 0.026; (concentration: 0.5mM) 1.04 ± 0.075; (concentration: 1mM) 0.896 ± 0.022; (concentration: 2mM) 0.916 ± 0.068; (concentration: 4mM) 0.91 ± 0.037; (concentration: 6mM) 0.889 ± 0.032. Besides, the NP40-soluble protein abundance was found to be 0.847 ± 0.037 (concentration: 8mM) and 0.849 ± 0.07 (concentration: 10mM).

Consider COPS5 (UniProt Q92905), for which the NP40-soluble protein abundance is, setting by setting: (concentration: 0.1mM) 1.05 ± 0.025; (concentration: 0.5mM) 1.04 ± 0.047; (concentration: 1mM) 1.05 ± 0.032; (concentration: 2mM) 1.04 ± 0.044; (concentration: 4mM) 1.03 ± 0.046; (concentration: 6mM) 1 ± 0.076. The NP40-soluble protein abundance reads like this: (concentration: 8mM) 1 ± 0.048; (concentration: 10mM) 0.976 ± 0.057.

With MRPS31 (UniProt Q92665), the NP40-soluble protein abundance reads like this: (concentration: 0.1mM) 1.04 ± 0.11; (concentration: 0.5mM) 1.11 ± 0.12; (concentration: 1mM) 1.23 ± 0.26; (concentration: 2mM) 1.28 ± 0.25; (concentration: 4mM) 1.31 ± 0.31; (concentration: 6mM) 1.24 ± 0.28. Also, the NP40-soluble protein abundance is, setting by setting: (concentration: 8mM) 1.26 ± 0.31; (concentration: 10mM) 1.21 ± 0.31.

These data come from the supplement of paper PMC6411743.
